Library screening results

Sequences of proteins named here, by UniProt entry; tags and fusion partners are left off.
UniProt E9BF75, entry or part of it: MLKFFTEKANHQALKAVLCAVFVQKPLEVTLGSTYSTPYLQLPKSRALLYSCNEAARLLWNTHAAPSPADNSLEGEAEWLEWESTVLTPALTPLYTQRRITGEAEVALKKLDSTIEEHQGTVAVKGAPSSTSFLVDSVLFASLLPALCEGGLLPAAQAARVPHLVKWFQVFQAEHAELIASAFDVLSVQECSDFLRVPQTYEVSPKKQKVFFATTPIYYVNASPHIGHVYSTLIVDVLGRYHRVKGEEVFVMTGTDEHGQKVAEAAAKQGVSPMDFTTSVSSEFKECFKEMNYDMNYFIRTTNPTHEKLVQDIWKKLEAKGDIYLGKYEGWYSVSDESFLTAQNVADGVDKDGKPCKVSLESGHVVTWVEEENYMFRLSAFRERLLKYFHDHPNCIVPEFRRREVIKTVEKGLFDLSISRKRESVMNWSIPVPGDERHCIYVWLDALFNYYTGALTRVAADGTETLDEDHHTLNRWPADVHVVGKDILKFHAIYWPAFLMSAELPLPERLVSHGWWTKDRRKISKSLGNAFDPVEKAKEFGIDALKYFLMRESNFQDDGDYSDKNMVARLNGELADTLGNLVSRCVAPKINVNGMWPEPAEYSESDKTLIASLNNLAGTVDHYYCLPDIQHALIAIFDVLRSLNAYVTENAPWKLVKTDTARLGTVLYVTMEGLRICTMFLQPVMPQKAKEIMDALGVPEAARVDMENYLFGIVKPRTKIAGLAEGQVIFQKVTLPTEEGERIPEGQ

From ChEMBL document CHEMBL3988442, “University of Dundee, Small-Polar-MMV Screening Library” (2021).

LdMetRS: 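Primary screen of methionyl-tRNA synthetase; the read-out is not stated. Target: Methionyl-tRNA synthetase (putative), Leishmania donovani (UniProt E9BF75). The test concentration is not given. The values are filed as inhibition. About 68,000 compounds were tested under these conditions; 0.035% (about 24) showed 50% or more at least once.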
Mtb heat-shock: 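Assay on Mycobacterium tuberculosis, filed only as a heat shock assay from Cornell; the read-out is not stated. The concentration is filed as 10 mM, unlikely as a test dose, so the dose is not known. The record gives no direction; compounds that gave an IC50 in retests scored well above the rest, so higher reads as stronger inhibition. Of about 69,000 compounds tested this way, about 930 (1.4%) reached 50% or more in at least one test.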

Results are percentages, as filed.
The controls that fix the scale are not given in the record; negative values are as filed.
The compounds are a random part of those screened.
A dash means the value is not listed here; it may have been measured.

compound | LdMetRS | Mtb heat-shock
CC(NC(=O)CCn1cncn1)c1nnc2n1CCCCC2 (stereo not drawn) | 14.29% | 11.58%
CC(C)c1cc(C(=O)NCCCN(C)C)nc(N2CCCC2)n1 | 8.794% | 9.02%
CN(C)C(=O)N1CCC2(CC1)NC(=O)c1ccccc12 | 15.58% | -
CC(C)c1ncc2c(n1)CN(Cc1nc(-c3ccco3)no1)CC2 | 28.89% | -2.696%
COc1cc2nc3n(c(=O)c2cc1OC)CCN(C)CC3 | 9.932% | -13.2%
O=S1(=O)C[C@@H]2[C@H](C1)N(Cc1cc(F)cc(Cl)c1)CCN2CCO | 4.835% | -
Cc1nc(C2CCN(C(=O)c3cscn3)CC2)c2sccn12 | 12.43% | -6.429%
COc1ccc(CN2CCC3(CC2)CCN(CCN(C)C)C3=O)cc1.O=C(O)C(F)(F)F.O=C(O)C(F)(F)F | - | -10.28%
CCc1nccn1C1CCCN(C(=O)c2ccc3c(c2)OCO3)C1 (stereo not drawn) | 3.644% | -33.95%
CN1CCC(N2CCC(c3ccccc3C(=O)O)C2)CC1 (stereo not drawn) | 16.84% | 5.918%
Cl.Nc1nc(Nc2ccccc2)cc(N2CCNCC2)n1 | - | -12.07%
O=C(NC1CC1)[C@@H]1CCO[C@@H]2CCN(CC3CCC3)C[C@@H]21 | 6.162% | -
Cc1ncsc1C(=O)NCCNC(=O)c1cccs1 | 14.92% | 0.4151%
CCN(CC)C(CNC(=O)c1ccc(S(=O)(=O)NC)cc1)c1ccco1 (stereo not drawn) | 10.63% | -19.62%
COc1cccc(COCC(=O)N2CCCC(n3ccnc3)C2)c1 (stereo not drawn) | 7.843% | 24.3%
Cc1nc2c(c(NCCN3CCOCC3)n1)CCN(C)C2 | 3.416% | -0.4081%
c1cncc(COCC2CN(Cc3ccco3)Cc3nccn3C2)c1 (stereo not drawn) | 10.65% | -7.096%
Cc1cccc(CS(=O)(=O)c2nnc([C@@H](N)Cc3ccccc3)o2)c1.Cl | - | -22.14%
NC(CC1CCCC1)c1ccccc1 (stereo not drawn) | 14.23% | -
CSCCNC(=O)c1cc(Br)cn1C(C)C | 8.152% | -15.96%
CCOc1cc(CNC(=O)C(C#N)c2nc(C)cs2)ccc1OC(F)F (stereo not drawn) | 4.348% | -34.48%
CNc1ncc(C(=O)N2CCOC(C(=O)Nc3ccccc3)C2)cn1 (stereo not drawn) | 14.36% | -1.476%
CCN1CCC2(CC1)CC(NC(=O)c1csnn1)c1ccccc1O2 (stereo not drawn) | 12.89% | -
O=C(O)C(F)(F)F.[H][C@]12CCC(=O)N(c3cccnc3)[C@@]1([H])CCN2C(=O)c1ccc(C)o1 | - | -1.001%
CS(=O)(=O)CCCNC(=O)C1(c2cccc(Cl)c2)CC1 | 7.614% | -6.78%
Cc1cc(OCC(=O)N2CCCC(c3nc(C)c(C)s3)C2)no1 (stereo not drawn) | 9.538% | -31.81%
CCO[C@H]1C[C@@H](O)C12CCN(C1CCN(c3ccccc3)CC1)CC2 | 5.584% | 9.507%
CCC(C)C(=O)NCc1cccc(N2CCCCC2=O)c1 (stereo not drawn) | 11.34% | 10.82%
CC(C)n1cnnc1CN(C)C(=O)c1ccc[nH]1 | 6.25% | -19.86%
Cc1ccccc1CNC(C)c1ccc(OCC(=O)NC2CC2)cc1 (stereo not drawn) | 7.163% | -22.92%
Cl.O=C(N1CCCC1)N1CCc2c(CNc3ncccn3)cncc2C1 | - | 4.665%
Cc1ncsc1CN1CCn2c(COCC3CC3)cnc2C1C (stereo not drawn) | 8.759% | -
CCCc1nncn1-c1cc(OC)ccc1OC | - | -3.896%
CCn1c(=O)c2sccc2n(CC(=O)Nc2cccc(Cl)c2)c1=O | -0.5714% | -17.62%
Cc1nc2cc(F)cc(C(=O)N3CCN(CCO)CC3)c2nc1C | 4.945% | -9.395%
O=C(CCC(=O)N1CCC(Cc2ccc(CO)cc2)C1)c1ccccc1 (stereo not drawn) | 16.1% | 1.369%
CC(=O)N1CCC(NC(=O)c2cc(Cl)ccc2-n2cnnn2)CC1 | - | -1.212%
CNC(=O)C1CCCCN1C(=O)c1csc(-c2ccc(C)cc2)n1 (stereo not drawn) | 6.72% | 5.393%
CC(C)Nc1nc2c(cc1C(=O)N(C)C)CCNCC2.O=C(O)C(F)(F)F.O=C(O)C(F)(F)F | - | -11.1%
Cc1ccc2c(c1)C(=O)NCC1(CCN(C(=O)c3ccnn3C)CC1)O2 | 12.94% | -0.3967%
Cc1nc2c(c(C)c1CC(=O)NCc1ccccc1F)c(=O)[nH]n2C | 20.99% | 2.265%
CC(C(=O)NCc1ccnc(N(C)C)c1)n1cccn1 (stereo not drawn) | 20.22% | -26.97%
O=C(Nc1ccc(-c2cscn2)cc1)C1CCCN(Cc2ccon2)C1 (stereo not drawn) | 10.48% | 21.84%
N#Cc1ccnc(N2CCN(C(=O)NC3CCS(=O)(=O)C3)CC2)c1 (stereo not drawn) | 5.397% | 6%
COc1ccccc1C(=O)N1CCOC2(CCCN(C(C)=O)C2)C1 (stereo not drawn) | 7.463% | 71.6%
COc1c(C(=O)NC(C)Cc2ccccc2Cl)c(C)nn1C (stereo not drawn) | 14.85% | -0.421%
NC(=O)Cn1c(CO)cnc1SCC(=O)NCc1ccccc1 | -13.67% | -19.38%
COc1cc(C)nc(N2CCN(C(=O)CCc3ccco3)CC2)n1 | 31.77% | 3.752%
[H][C@@]12C[C@@H](c3nnc(C)[nH]3)O[C@]1([H])CN(C(=O)c1sccc1C)C2 | - | -28.1%
CN1C(=N)NC(=O)/C1=C/c1ccc(-c2ccc(Br)cc2)o1 | 6.414% | -9.531%
Cc1ccc(N2CCCC(NC(=O)CCc3ccccn3)C2=O)cc1 (stereo not drawn) | 18.01% | -0.7196%
Cc1ccc(C(=O)NCc2cccnc2N(C)C)s1 | 24.43% | 0.05618%
Brc1csc(-c2noc(C3COCCO3)n2)c1 (stereo not drawn) | 6.137% | -7.694%
CCCS(=O)(=O)NC1CCN(c2nnc(C)c(C)c2C#N)CC1 | 8.591% | 2.531%
[H][C@]12CC[C@]([H])(CN(c3ncccn3)C1)N(Cc1ccsc1)C2 | - | 15.45%
CC(=O)N1CCN(Cc2ccc(C(F)(F)F)c(F)c2)CC(O)C1 (stereo not drawn) | 10.05% | -7.486%
COCCC1(CO)CCCN(Cc2ccc(C(F)(F)F)nc2)C1 (stereo not drawn) | 12.71% | -17.15%
CCS(=O)(=O)N1CC(c2nc(-c3cccs3)no2)C1 | -3.106% | 9.663%
CCN(CCSc1ccccc1)C(=O)c1cn([C@H]2CC[C@@H](N)CC2)nn1 | 13.94% | 12.67%
Cn1cc(CC(=O)N2CCOC(c3nc(C(C)(C)C)n[nH]3)C2)cn1 (stereo not drawn) | 12.5% | -3.418%
Cc1nc(C)n(CC2CCCN2CC(=O)Nc2nncs2)n1 (stereo not drawn) | 15.03% | 19.2%